These are yes or no findings as the source states them, for the method shown. In cells and extracts the contact can be indirect. Some results given as binding are weak or reduced against the parent protein; the word gives no strength. For part of these data: Where a sequence is shown, tags or fusion partners need not be part of it.

Amino acid sequences for entries named in this document (tags omitted).
UniProt Q9H7E2: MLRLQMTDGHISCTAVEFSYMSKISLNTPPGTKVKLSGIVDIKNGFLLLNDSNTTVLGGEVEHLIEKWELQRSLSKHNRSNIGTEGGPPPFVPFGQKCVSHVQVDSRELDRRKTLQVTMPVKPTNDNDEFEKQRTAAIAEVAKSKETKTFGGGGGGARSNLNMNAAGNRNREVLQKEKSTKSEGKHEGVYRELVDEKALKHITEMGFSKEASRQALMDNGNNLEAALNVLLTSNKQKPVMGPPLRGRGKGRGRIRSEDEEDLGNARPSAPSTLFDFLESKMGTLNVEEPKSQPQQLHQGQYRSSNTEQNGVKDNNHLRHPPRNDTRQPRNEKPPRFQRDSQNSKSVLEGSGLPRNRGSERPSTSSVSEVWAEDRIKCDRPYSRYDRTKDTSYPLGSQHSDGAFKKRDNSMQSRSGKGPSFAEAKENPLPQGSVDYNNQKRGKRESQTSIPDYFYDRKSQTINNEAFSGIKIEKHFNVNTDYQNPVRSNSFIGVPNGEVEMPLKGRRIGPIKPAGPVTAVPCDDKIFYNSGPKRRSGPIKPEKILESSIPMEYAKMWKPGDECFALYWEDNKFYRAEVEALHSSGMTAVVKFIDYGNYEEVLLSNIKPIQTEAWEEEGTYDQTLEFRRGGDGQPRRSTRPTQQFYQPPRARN

Data on 3 molecules can be found in paper PMC9870865.

One test addresses NFIB (co-IP with TDRD3) (UniProt O00712). As to the kind of experiment: co-IP; co-IP of TDRD3 and NFIB (Supplementary Fig. 2a); cells and constructs not shown.
In test [1] the target is NFIB (endogenous) (human (endogenous in HEK293T or HeLa, and in H69)) (UniProt O00712). As to the kind of experiment: co-IP; endogenous NFIB and endogenous TRIM29, untreated cells (Supplementary Fig. 2b); cells not shown.
For test [2] the target is unchanged. As to the kind of experiment: co-IP; endogenous NFIB immunoprecipitated from HEK293T cells (legend; the text says HeLa) transfected with FLAG-tagged constructs, cultured with DMSO or CARM1 inhibitor; anti-FLAG blot; lysis buffer 50 mM Tris pH 8, 150 mM NaCl, 1 mM EDTA, 0.5% NP40, 10% glycerol.

For “TDRD3 (co-IP) (from UniProt Q9H7E2 1-651)”, the binding entry with NFIB (co-IP with TDRD3) is “binds”.

B1: TRIM29 (endogenous) (protein, UniProt Q14134 1-588)
chain: MEAADASRSNGSSPEARDARSPSGPSGSLENGTKADGKDAKTTNGHGGEAAEGKSLGSALKPGEGRSALFAGNEWRRPIIQFVESGDDKNSNYFSMDSMEGKRSPYAGLQLGAAKKPPVTFAEKGELRKSIFSESRKPTVSIMEPGETRRNSYPRADTGLFSRSKSGSEEVLCDSCIGNKQKAVKSCLVCQASFCELHLKPHLEGAAFRDHQLLEPIRDFEARKCPVHGKTMELFCQTDQTCICYLCMFQEHKNHSTVTVEEAKAEKETELSLQKEQLQLKIIEIEDEAEKWQKEKDRIKSFTTNEKAILEQNFRDLVRDLEKQKEEVRAALEQREQDAVDQVKVIMDALDERAKVLHEDKQTREQLHSISDSVLFLQEFGALMSNYSLPPPLPTYHVLLEGEGLGQSLGNFKDDLLNVCMRHVEKMCKADLSRNFIERNHMENGGDHRYVNNYTNSFGGEWSAPDTMKRYSMYLTPKGGVRTSYQPSSPGRFTKETTQKNFNNLYGTKGNYTSRVWEYSSSIQNSDNDLPVVQGSSSFSLKGYPSLMRSQSPKAQPQTWKSGKQTMLSHYRPFYVNKGNGIGSNEAP
As for B1, in test [1], the binding result is on record as “binds”.

B2: Flag-tagged TRIM29 (full length) (protein, UniProt Q14134 1-588)
chain: B1 chain
For B2, the binding entry in test [2] is listed as “binds”.
